Test results published in US20180111893A1, “POLYCATIONIC AMPHIPHILES AND POLYMERS THEREOF AS ANTIMICROBIAL AGENTS AND METHODS USING SAME” (Temple University-Of The Commonwealth System of Higher …, priority 2015, published 2018).

Key:
[1] = system: community-acquired methicillin-resistant Staphylococcus aureus CA-MRSA (USA300-0114); experiment: Minimum inhibitory concentration (MIC); format: cell-based; conditions: read-out: MIC v MRSA
Description: (§1) As used herein, the term “minimum inhibitory concentration (MIC)” refers to the lowest concentration of an antimicrobial agent that will inhibit the visible growth of a microorganism after overnight incubation. MIC values against bacteria, for example, the Gram-positive Staphylococcus aureus and Enterococcus faecalis and the Gram-negative Escherichia coli and Pseudomonas aeruginosa were determined by standard methods. See also P. A. Wayne, Methods for Dilution Antimicrobial Tests for Bacteria that Grow Aerobically; Approved Standard, Ninth Edition, 2012, CLSI Document M07-A9, Vol. 32 No. 2, which is incorporated by reference herein in its entirety.
Decyl or benzyl substituents led to decreased toxicity.
(§2) Compounds were serially diluted two-fold from a 10% DMSO/aqueous stock solution to yield twelve test concentrations. […] Plates were incubated statically at 37° C. for 72 hours upon which time wells were evaluated visually for bacterial growth. The MIC was determined as the lowest concentration of compound resulting in no bacterial growth visible to the naked eye, based on the majority of three independent experiments. […]
(§3) Compounds were serially diluted two-fold from a 10% DMSO/aqueous stock solution to yield twelve test concentrations. […] Plates were incubated statically at 37° C. for 72 hours upon which time wells were evaluated visually for bacterial growth. […]

[2] = system: Staphylococcus aureus (SA; MSSA SH1000); experiment: Minimum inhibitory concentration (MIC); format: cell-based; conditions: read-out: MIC v SA
Description: as §1, §2, §3

CCCCCCCCCCCCCCCC[n+]1ccccc1 [Cetyl pyridinium chloride, reference compound]
MIC [1]: 16 µM
MIC [2]: 0.5 µM
